One experiment concerns the target BSA (bovine) (UniProt P02769). Description: condition: 1 µM in the methods; concentrations on the X-axis of Figure 3A; ELISA; target proteins coated on Maxisorp plates (200 nM, pH 9.6), blocked with 0.2% non-fat milk in PBS; Mtd-GST fusion proteins in blocking buffer for 1 h; detected with polyclonal rabbit anti-Mtd and HRP-conjugated anti-rabbit antibody; both purified.

The chains behind the UniProt entries cited, without tags or fusion partners. Residues count along the entry.
UniProt P02769, residues 25-607: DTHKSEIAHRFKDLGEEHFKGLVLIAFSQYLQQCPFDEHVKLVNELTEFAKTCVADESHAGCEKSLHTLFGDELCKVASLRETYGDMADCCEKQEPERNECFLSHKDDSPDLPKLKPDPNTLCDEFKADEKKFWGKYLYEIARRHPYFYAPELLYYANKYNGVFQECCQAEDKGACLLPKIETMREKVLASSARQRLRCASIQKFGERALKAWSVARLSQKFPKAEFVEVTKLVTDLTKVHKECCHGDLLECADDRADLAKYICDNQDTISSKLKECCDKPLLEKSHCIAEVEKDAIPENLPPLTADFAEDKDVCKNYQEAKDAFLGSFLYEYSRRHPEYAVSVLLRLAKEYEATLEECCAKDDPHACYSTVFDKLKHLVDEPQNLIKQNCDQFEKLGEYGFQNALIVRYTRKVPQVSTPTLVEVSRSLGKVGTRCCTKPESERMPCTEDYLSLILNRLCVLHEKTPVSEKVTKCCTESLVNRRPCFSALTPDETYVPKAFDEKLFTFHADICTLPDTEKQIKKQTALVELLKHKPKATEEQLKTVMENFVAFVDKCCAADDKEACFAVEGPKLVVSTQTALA
UniProt Q775D6: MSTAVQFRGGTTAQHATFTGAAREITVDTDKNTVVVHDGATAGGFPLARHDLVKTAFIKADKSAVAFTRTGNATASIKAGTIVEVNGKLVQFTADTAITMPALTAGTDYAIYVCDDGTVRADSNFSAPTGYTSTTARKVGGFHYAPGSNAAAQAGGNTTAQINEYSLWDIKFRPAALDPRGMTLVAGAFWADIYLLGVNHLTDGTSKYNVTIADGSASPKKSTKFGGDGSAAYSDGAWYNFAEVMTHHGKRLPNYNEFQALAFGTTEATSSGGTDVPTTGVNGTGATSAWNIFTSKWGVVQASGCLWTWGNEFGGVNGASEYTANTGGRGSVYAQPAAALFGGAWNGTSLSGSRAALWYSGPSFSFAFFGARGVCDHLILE

For another experiment, the target named is ovalbumin (UniProt P01012). The description is as above.

In publication PMC3567102 one finds binding data, which are given here for one substance.

Results are given in words; binding and its absence hold for the method and conditions named.

Regarding “wild-type Mtd (major tropism determinant), Mtd-GST fusion protein (from UniProt Q775D6 1-381)”, the binding result in the experiment with BSA (bovine) and with ovalbumin was “no binding” throughout.
